Laboratory results: patent US8404650B2, “Methods of treating cancer with doxazolidine and prodrugs thereof” (priority 2005, dated 2013)
Some of these results come from one statement about several compounds together.

Assay: Hydrolytic stability of Doxaz carbamate prodrugs in aqueous media
Type: physicochemical
Conditions: aqueous media at pH 7.4

SMILES | Stability with respect to hydrolysis of the oxazolidine ring
COc1cccc2c1C(=O)c1c(O)c3c(c(O)c1C2=O)C[C@@](O)(C(=O)CO)C[C@@H]3O[C@H]1C[C@H]2[C@@H](OCN2C(=O)OCc2ccc(NC(=O)OCc3ccc(NC(=O)[C@H](CCCCN)NC(=O)[C@H](Cc4ccccc4)NC(=O)[C@@H](C)N)cc3)cc2)[C@H](C)O1 [Formula V] | > 6 h
COc1cccc2c1C(=O)c1c(O)c3c(c(O)c1C2=O)C[C@@](O)(C(=O)CO)C[C@@H]3O[C@H]1C[C@H]2[C@H](OCN2C(=O)OCc2ccc(NC(=O)[C@H](CCCCN)NC(=O)[C@H](Cc3ccccc3)NC(=O)[C@@H](C)N)cc2)[C@H](C)O1 [Formula IV, D-Ala-L-Phe-L-Lys-p-aminobenzyloxycarbonyl-Doxaz] | > 6 h
